{"sequences": {"note": "The chains behind the UniProt entries cited, without tags or fusion partners. Residues count along the entry.", "UniProt P08138, residues 330-427": "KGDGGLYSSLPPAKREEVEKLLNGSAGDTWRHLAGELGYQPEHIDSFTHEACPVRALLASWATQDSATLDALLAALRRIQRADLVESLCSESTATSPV"}, "source": "paper PMC5539145", "binders": {"B1": {"name": "TRADD DD (199-312), C-terminal death domain of the TNFR1-associated death domain protein (domain or fragment, UniProt Q15628 199-312)", "chain": "AQTFLFQGQPVVNRPLSLKDQQTFARSVGLKWRKVGRSLQRGCRALRDPALDSLAYEYEREGLYEQAFQLLRRFVQAEGRRATLQRLVEALEENELTSLAEDLLGLTDPNGGLA"}}, "target": "p75 neurotrophin receptor death domain (p75NTR DD) (UniProt P08138)", "assay": "NMR titration; unlabeled TRADD DD added to 15N-labelled p75NTR DD monomer; 2D 1H-15N HSQC; 28 °C in water; with dithiothreitol, without phosphate ions; TRADD DD ~0.3 mM, molar ratio TRADD DD to p75NTR DD ~1:2; both purified", "note": "No constants are given. Whether binding was seen depends on the method and setting. Some binding calls cover weakened binding; strength is not graded here."}
{"binder": "B1", "values": [{"measurement": "binding", "result": "binds weakly"}]}
